# Experimental data published in PubChem BioAssay AID493014 (National Center for Advancing Translational Sciences (NCATS), 2011).
# Several values for one entry are separate records, joined by “and”; a condition that tells them apart may be missing. Identical values can stand only once. The list shows a part of the results. Shown are side measurements of this screen, not its main read-out; they come without a call. Most of these compounds were active or inconclusive in the main read-out, so they are no random draw. Potencies come from curve fits of mixed quality, noted in brackets.
# Experiment: qHTS Assay to Find Inhibitors of Chronic Active B-Cell Receptor Signaling
# Settings: ABC-DLBCL IkBa-CBG/CBR reporter, luminescence ratio (green luciferase fused to IkBa over red control in TMD8 lymphoma cells), 4 h
# Outline: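 TMD8 ABC-DLBCL cells carrying doxycycline-inducible green luciferase fused to IkappaBalpha plus unfused red luciferase were exposed to compounds (up to 46 uM) for 4 hrs at 37C. Activity came from the overlap-corrected green/red luminescence ratio.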
# [1] = measured here: CBR red luminescence, cell number
# [2] = measured here: IkBa-CBG green luminescence
Structure (SMILES),AC50 [1],AC50 [2]
C=CCNC(=O)c1ccccc1NS(=O)(=O)c1ccc(SC)cc1,"6.51 µM [rising, single point]",
COC(=O)c1nn(-c2ccc(-c3ccccc3)cc2)cc1O,"10 µM [falling, single point]",
COc1ccc(-c2cc(C(=O)Nc3cc(Br)ccc3O)no2)cc1,"0.708 µM [falling, partial curve, poor fit]",
CC1CCCCN1Cc1c(O)ccc2c(=O)c(-c3nc4ccccc4s3)c(N)oc12 (stereo not given),"13 µM [falling, partial curve]",
COC(=O)N/N=C\c1ccccc1OC/C=C/c1ccccc1,"0.355 µM [rising, full curve, poor fit]",
O=c1nc(Nc2ccc(Br)cc2)sc2ccc([N+](=O)[O-])cc12,"10 µM [falling, partial curve, poor fit]",
O=C(Nc1ccccc1C(F)(F)F)NC1CCCCC1,"16.4 µM [rising, partial curve, poor fit]",
C=CCOC(=O)c1[nH]c2c(c1C)C(=O)CC(c1ccco1)C2 (stereo not given),"0.58 µM [rising, full curve]",
CC1CCCCN1S(=O)(=O)c1ccc(N(C(=O)c2cnccn2)C(C(=O)NC2CCCCC2)c2cccs2)cc1 (stereo not given),"20.6 µM [falling, partial curve, poor fit]",
COc1ccc(C(=O)N2CCC(n3c(C)nc4cc(F)ccc43)CC2)cc1OC,"12.6 µM [rising, partial curve, poor fit]",
O=C(NC1=NCCS1)c1ccc(Cl)s1,"8.2 µM [rising, partial curve, poor fit]",
CCc1ccc(/C=C2\SC(=S)N(CCC(=O)NC3=NCCS3)C2=O)cc1,"4.47 µM [falling, full curve, poor fit]","35.5 µM [falling, partial curve, poor fit]"
Cc1cc(C)n(-c2ccc(C(=O)OCC(=O)Nc3ccccc3[N+](=O)[O-])cc2)n1,"2.59 µM [rising, partial curve, poor fit]",
O=C(N[C@@H](Cc1ccccc1)c1nc2ccccc2[nH]1)c1cc([N+](=O)[O-])ccc1Cl,"23.1 µM [falling, single point]",
CCOC(=O)c1cc(C#N)c(NCc2ccccc2)nc1C,"11.2 µM [rising, partial curve]",
Cc1cccc(-c2n[nH]c(S(C)(=O)=O)c2C#N)c1,"1.78 µM [rising, full curve]",
Cc1oc(-c2ccccc2F)nc1CS(=O)(=O)CC(=O)N1CCN(c2ccccc2)CC1,"6.51 µM [rising, single point]",
COc1cc(/C=C/C(=O)CC(=O)/C=C/c2ccc(O)c(OC)c2)ccc1O,"15.8 µM [falling, single point]",
CC(C)(C)C(=O)Nc1ccc(C(=O)NNC(=O)Cc2ccccc2)cc1,"10.3 µM [rising, partial curve]",
CN(C)CC(C)(C)CNS(=O)(=O)c1ccc(Cl)c(Cl)c1,"25.1 µM [falling, partial curve, poor fit]",

Structure (SMILES),AC50 [1],AC50 [2]
CCOC(=O)c1c(-c2cccc([N+](=O)[O-])c2)csc1NC(=O)C1CCCCC1,"2.59 µM [rising, full curve, poor fit]",
Cc1ccc(/C=N/NC(=O)c2cc(-c3cccnc3)nc3ccccc23)cc1,"3.55 µM [rising, full curve, poor fit]","3.55 µM [falling, full curve]"
COc1cc(/C=C2\SC(N)=NC2=O)ccc1O,"11.2 µM [falling, partial curve]",
COc1ccc2c(c1)c1ncn(Cc3ccc(F)cc3)c(=O)c1n2C,"35.5 µM [rising, single point]",
N#C/C(=C\C=C\c1ccccc1[N+](=O)[O-])C(=O)NCc1ccccc1,"12.6 µM [falling, single point]","2.51 µM [falling, full curve, poor fit]"
Cc1c(Cl)cccc1Nc1nn2c(=O)c3ccccc3nc2s1,"3.55 µM [falling, partial curve, poor fit]",
C[N+](C)(C)CCOC(=O)C1(c2ccccc2)CCCC1,"0.146 µM [falling, full curve, poor fit]",
COc1ccc(CNS(=O)(=O)c2c(C(=O)N3CCCCC3)c(C)n(C)c2C)cc1,"11.2 µM [rising, partial curve, poor fit]",
CCOC(=O)c1ccc(NC(=O)CN2C(=O)NC3(CCCCCCC3)C2=O)cc1,"18.4 µM [falling, single point]",
O=C(N/N=C/c1ccco1)c1ccc2nc[nH]c2c1,"12.6 µM [falling, single point]",
COC(=O)C1CCN(c2nc3ccccc3nc2C(C#N)C(=O)NCCc2ccccc2)CC1 (stereo not given),"0.708 µM [falling, full curve, poor fit]",
Brc1ccc2oc(-c3ccn[nH]3)cc2c1,"1.26 µM [rising, full curve, poor fit]",
Cc1ccc(N2C(=O)Nc3cc(Cl)c(Cl)cc3N2O)cc1Cl,"31.6 µM [falling, single point]",
Cc1cccc(CS(=O)(=O)c2nnc([C@H](Cc3ccccc3)NC(=O)OC(C)(C)C)o2)c1,"16.4 µM [falling, partial curve]","13 µM [rising, partial curve, poor fit]"
CCOC(=O)c1c(NC(=O)CSc2nnc(-c3ccccc3)n2CC)sc(C(C)=O)c1C,"11.2 µM [falling, partial curve]",
COc1ccc(OC)c(/C=C/C(=O)c2ccc3c(c2)OCO3)c1,"16.4 µM [falling, partial curve]",
COc1ccc(OC)c(S(=O)(=O)Nc2ccc3c(c2)n(C)c(=O)n3C)c1,"11.2 µM [rising, partial curve]",
CC(=O)Nc1cccc(NC(=O)c2ccc(Br)cc2)c1,"1.58 µM [falling, full curve, poor fit]",
COc1cc2c(cc1OC)CN(c1ncccc1[N+](=O)[O-])CC2,"1.12 µM [rising, partial curve, poor fit]",
C=CCc1ccccc1OCC(O)CN1CCN(Cc2ccc3c(c2)OCO3)CC1 (stereo not given),"0.58 µM [falling, partial curve, poor fit]",

Structure (SMILES),AC50 [1],AC50 [2]
C=CCOC(=O)C1=C[C@H](c2cn(C(C)=O)c3ccccc23)C[C@H](OCCCCO)O1,"6.31 µM [rising, single point]",
COc1cc(CC(=O)Nc2ccc3nc(C)sc3c2)cc(OC)c1OC,"3.66 µM [rising, single point]",
Cc1cc(C(=O)NCCC2=CCCCC2)no1,"22.4 µM [falling, single point]",
C=CCNC(=O)NC(=O)COC(=O)[C@H](C)NS(=O)(=O)c1c(C)c(C)cc(C)c1C,"2.24 µM [rising, partial curve, poor fit]",
O=C(O)c1ccc(/C=N/NC(=O)c2cc3c(ccc4ccccc43)o2)cc1,"1.78 µM [falling, full curve, poor fit]",
O=C1C(SCCO)=C(SCCO)C(=O)c2ccccc21,"18.4 µM [falling, partial curve]","4.11 µM [falling, partial curve, poor fit]"
Cc1ccc(C(=O)Nc2nc3ccc(S(C)(=O)=O)cc3s2)o1,"16.4 µM [falling, single point]",
c1ccc(Cc2nc3ccccc3o2)cc1,"0.146 µM [falling, full curve, poor fit]",
[2H]c1c([2H])c([2H])c(-c2nc(N3CCCCCC3)sc2C(=O)c2ccccc2)c([2H])c1[2H],"2.51 µM [rising, partial curve, poor fit]",
COc1cccc(-c2nn(-c3ccc(C)cc3)cc2C(=O)N2CCN(C3CCS(=O)(=O)C3)CC2)c1 (stereo not given),"1.64 µM [rising, partial curve, poor fit]",
COc1ccc2[nH]c(=O)c(COC(=O)c3cccs3)cc2c1,"2.91 µM [rising, full curve, poor fit]",
N#Cc1nc(COc2ccccc2)oc1N1CCN(Cc2ccccc2)CC1,"29.1 µM [rising, single point]",
O=C(Nc1nnc(-c2ccccc2)s1)c1ccccc1O,"0.562 µM [falling, full curve]",
Cc1ccc(CSc2nnc(SCC(=O)N/N=C/c3c(C)nn(-c4ccccc4)c3C)s2)cc1,"9.2 µM [falling, partial curve]",
Cc1ccc(NC(=O)CSc2nc(=O)n(CCN(C)C)c3c2CCCC3)cc1Cl,"29.1 µM [falling, single point]",
CCOC(=O)c1c(NC(=O)CCS(=O)(=O)c2ccccc2)sc2c1CCN(C)C2,"6.31 µM [rising, single point]",
COc1cc(C(c2c(C)[nH][nH]c2=O)c2c(C)[nH][nH]c2=O)ccc1OCc1ccc([N+](=O)[O-])cc1,"23.1 µM [falling, single point]",
CNC(=O)Oc1ccc2c(c1)[C@]1(C)CCN(C)[C@@H]1N2C,"15.8 µM [rising, partial curve, poor fit] and 29.1 µM [rising, single point]",
O=C(OCc1cccc(F)c1)c1ccc2c(=O)n3c(nc2c1)CCC3,"1.26 µM [rising, full curve, poor fit]",
O=C(Cn1nc(-c2ccccc2)ccc1=O)NCCN1CCN(c2cccc(Cl)c2)CC1,"0.146 µM [rising, full curve, poor fit]",
